# This is one part of the list.
# Amino acid sequences for entries named in this document (tags omitted).
# UniProt Q0JBA9, entry or part of it: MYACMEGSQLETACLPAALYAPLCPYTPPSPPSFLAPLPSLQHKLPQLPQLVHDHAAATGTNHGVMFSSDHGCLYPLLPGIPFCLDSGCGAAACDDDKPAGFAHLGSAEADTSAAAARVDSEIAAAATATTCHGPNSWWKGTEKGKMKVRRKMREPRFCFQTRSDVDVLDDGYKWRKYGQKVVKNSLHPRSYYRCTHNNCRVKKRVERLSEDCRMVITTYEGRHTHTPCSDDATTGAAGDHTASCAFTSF
# Target: OsWRKY34 (Oryza sativa, UniProt Q0JBA9 1-250)
# Assay: protein-binding microarray (RPBM); PBS, 2% BSA, 51.3 ng/ul salmon testes DNA, 50 uM zinc acetate, 200 nM TF, 25 C, 1 h; high values mean tight binding
# Details: protein: recombinant; tags: N-terminal polyhistidine and DsRed monomer fusion (pET32a); label: CyDye5-dUTP incorporated in the synthesized complementary strand; 3' TTTTT single-stranded linker to array surface; dsDNA, one strand shown
# Procedure, shortened: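 Ni–NTA purification followed expression in E. coli BL21-CodonPlus of transcription factors fused N-terminally to a polyhistidine tag and DsRed. At 200 nM in PBS with 2% BSA, salmon testes DNA and 50 µM zinc acetate, the protein was incubated for 1 h at 25 °C with a custom Agilent array that had been primer-extended with Cy5-dUTP and blocked with 2% BSA. After washing, the array was read on an Axon 4000B scanner. The binding signal is per-feature fluorescence intensity in arbitrary units.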
row,Sequence,binding signal
1,TATCTGTCCTCTTCGTCATATATAACTCTCTTGACGAACTCGGAGTCACCTAGTGCAG,12500 fluorescence intensity (a.u.)
2,CCCACGCTTCCGGGCGCGCCTCCTTTTTGTCTTAACCAAGCGGAGTCACCTAGTGCAG,10400 fluorescence intensity (a.u.)
3,TCATACCAACTACATCCTCCTTGCTACATCAATTGTATTCCGGAGTCACCTAGTGCAG,8730 fluorescence intensity (a.u.)
4,CAGCTGTTCTGATCGCTTCTTGTGGCTTCTGTGCCGTGCTCGGAGTCACCTAGTGCAG,8440 fluorescence intensity (a.u.)
5,TGCCATATATCACCTGCAGGCACTACTAGTAACTCTCACTCGGAGTCACCTAGTGCAG,8830 fluorescence intensity (a.u.)
6,CCATTATCCGCCGCCGCCGCCGAGCATAGCCCATCGCACACGGAGTCACCTAGTGCAG,11600 fluorescence intensity (a.u.)
7,TTCCGCCTCTGCCTCGTCCAAGTCCAAGCCAACTACCTAACGGAGTCACCTAGTGCAG,8160 fluorescence intensity (a.u.)
8,CGGAATAATATATTGCCTATTAATCTATATTGTCAATTTTCGGAGTCACCTAGTGCAG,8480 fluorescence intensity (a.u.)
9,TTTTTGCAAGCTTTTCATCACATAGGCCACCACCCTCTTTCGGAGTCACCTAGTGCAG,8190 fluorescence intensity (a.u.)
10,AAACTTATCAATCATGCGTTTTCTTGTTTTCGTGGATCATCGGAGTCACCTAGTGCAG,10600 fluorescence intensity (a.u.)
11,CCCGTTCTAATTCAGTTTCTCCCTTTCTTACCGCATGTACCGGAGTCACCTAGTGCAG,8490 fluorescence intensity (a.u.)
12,GAGCCGTATATTTTCTGTCGACAAATATCCAATTATATTGCGGAGTCACCTAGTGCAG,10900 fluorescence intensity (a.u.)
13,CGTCGCGGCTATACGGCTATTATACCTACCAGCCACCACACGGAGTCACCTAGTGCAG,8930 fluorescence intensity (a.u.)
14,TCGTGAACCTTTTCGAGTGTAAACCACTCGGATTCTTTTTCGGAGTCACCTAGTGCAG,8580 fluorescence intensity (a.u.)
15,GCGGCTTAGTAACGTTTGTAGGAAGTTTAATGGACTTTTACGGAGTCACCTAGTGCAG,8580 fluorescence intensity (a.u.)
16,GGAGAGTTTGACCCGTGCGCTTTCCTCCCGGCTGGCTCGCCGGAGTCACCTAGTGCAG,8160 fluorescence intensity (a.u.)
17,GTCTGCGTCGTCAATGGCCACCTGTGTTCCTCTTGCTCTTCGGAGTCACCTAGTGCAG,9330 fluorescence intensity (a.u.)
18,AACTTGTTTGCAATTTTTTTTCCTGCTCTATCAATATAAACGGAGTCACCTAGTGCAG,9370 fluorescence intensity (a.u.)
19,TCAACCGTTTTCCCAAAGCTGACGCGATGCGGTACGACCTCGGAGTCACCTAGTGCAG,8510 fluorescence intensity (a.u.)
20,CTCTCAAATGTCTTTGTTTCCCGCCATTTTTTTGGCCATCCGGAGTCACCTAGTGCAG,8430 fluorescence intensity (a.u.)
21,CCGTCTGCTTTTATTCGAAACCCCAACTTATCGTGTGTATCGGAGTCACCTAGTGCAG,9850 fluorescence intensity (a.u.)
22,GACCATGAACAGTGTTTGCCGAAATTTTTGACCGGAGCTCCGGAGTCACCTAGTGCAG,9510 fluorescence intensity (a.u.)
23,CACCCGCTCTCCTCGCTGCGTCGCCGTCGCCTGCTCCTCTCGGAGTCACCTAGTGCAG,11000 fluorescence intensity (a.u.)
24,CTACCGCTGCTGCTGCTGCTACTACTACTACTCTCTCTCTCGGAGTCACCTAGTGCAG,8640 fluorescence intensity (a.u.)
25,AATTGCTTTGTTAAACTGTACAGGTATGCTGCTGTATTTGCGGAGTCACCTAGTGCAG,8460 fluorescence intensity (a.u.)
26,ATCCAACACCGCCCATCAATTGATCACGCAAATACTAAACCGGAGTCACCTAGTGCAG,12600 fluorescence intensity (a.u.)
27,AGGGCTTAAGGAGGGCGATGTGGCTGGTGGTAGTTGTCGTCGGAGTCACCTAGTGCAG,8340 fluorescence intensity (a.u.)

# 3 entries from above, tab-delimited.
row	Sequence	binding signal
4	CAGCTGTTCTGATCGCTTCTTGTGGCTTCTGTGCCGTGCTCGGAGTCACCTAGTGCAG	8440 fluorescence intensity (a.u.)
8	CGGAATAATATATTGCCTATTAATCTATATTGTCAATTTTCGGAGTCACCTAGTGCAG	8480 fluorescence intensity (a.u.)
24	CTACCGCTGCTGCTGCTGCTACTACTACTACTCTCTCTCTCGGAGTCACCTAGTGCAG	8640 fluorescence intensity (a.u.)

# Following part.

row,Sequence,binding signal
1,ACGTCCGATAGTTTTTGCCACATTCGCTTGCTTCATGCTCCGGAGTCACCTAGTGCAG,13400 fluorescence intensity (a.u.)
2,ACGCACCTTCATCTTCGCTCTCGCTTTCCCGTGTAAGCCGCGGAGTCACCTAGTGCAG,8650 fluorescence intensity (a.u.)
3,CCACGCAATCCCGCTTCCAAACCGCGAAGGCGTAAATCCTCGGAGTCACCTAGTGCAG,8130 fluorescence intensity (a.u.)
4,AATTGCGAGGCACCTCTCTTGTTCATCTGCTCTGCTGGGGCGGAGTCACCTAGTGCAG,8540 fluorescence intensity (a.u.)
5,TTAATTTTTTTTCCTTATACATTTCCTTTCCTTTTTTTTACGGAGTCACCTAGTGCAG,8270 fluorescence intensity (a.u.)
6,ATGGCACGAACACATTTTTTGTTTTTATAAGCGGTACAATCGGAGTCACCTAGTGCAG,8540 fluorescence intensity (a.u.)
7,TTAGGGGTAGGCTAGAGATTGATTGGGGCTTATATGATAACGGAGTCACCTAGTGCAG,19700 fluorescence intensity (a.u.)
8,TTGAACTGGCTTTGGCCGTTATATAGGGGTTGGTCTTCCACGGAGTCACCTAGTGCAG,9020 fluorescence intensity (a.u.)
9,ACGGCCACCCGCATCAACTCTTCCACTCTCTCCATTCCTACGGAGTCACCTAGTGCAG,8090 fluorescence intensity (a.u.)
10,CCTCTTCTGATGTGGTCACATTCTCGCGTGCTCATTTGCACGGAGTCACCTAGTGCAG,8470 fluorescence intensity (a.u.)
11,ATGTGCTGGCTTTATATTTGTAGCAAACCAAATACAATCTCGGAGTCACCTAGTGCAG,8510 fluorescence intensity (a.u.)
12,CTTTATGAGAACACACCTTCTAAGGTTCCAACCCATTTTACGGAGTCACCTAGTGCAG,8330 fluorescence intensity (a.u.)
13,ATTTATATTTAATACTTGTGTGCGTGTGTATTCGATGTGACGGAGTCACCTAGTGCAG,8290 fluorescence intensity (a.u.)
14,TCCCCATGCCATGCAAAATAAATATCCATATTACCGTTTCCGGAGTCACCTAGTGCAG,8320 fluorescence intensity (a.u.)
15,TGTTTTCACTTTCCTCTTCAGTCTTCTTCCTTCTTTCGTTCGGAGTCACCTAGTGCAG,9140 fluorescence intensity (a.u.)
16,GGATTTTGACTTTTTACTTGCACTGTTTGACTATTCGTCTCGGAGTCACCTAGTGCAG,18600 fluorescence intensity (a.u.)
17,CTACTGTCATGCTTCCTTGTCACATTACTACATCGTCGTTCGGAGTCACCTAGTGCAG,8730 fluorescence intensity (a.u.)
18,TATCCTATCCCTAATTAGATTGGGCTTTTTTCTTTTGTTTCGGAGTCACCTAGTGCAG,11400 fluorescence intensity (a.u.)
19,CCACTCTGCACTCTTCTCTCATCCAAAACCCCAATTTCCCCGGAGTCACCTAGTGCAG,9860 fluorescence intensity (a.u.)
20,ATGTTTGACACCGTTGATTTTTTAACACATGTTTGACCGTCGGAGTCACCTAGTGCAG,9910 fluorescence intensity (a.u.)
21,ATCGTTGCTGGTGCTTGGCATGTTTTCTTTTGCATCATTTCGGAGTCACCTAGTGCAG,10000 fluorescence intensity (a.u.)
22,CCTCTTAACTAGTGGATTGATTCCCGGTCTCTTATTATCCCGGAGTCACCTAGTGCAG,8580 fluorescence intensity (a.u.)
23,CGGTTGTTCTGAGTTCGATTTTTTTTGGCCAGCGGTTGTTCGGAGTCACCTAGTGCAG,13200 fluorescence intensity (a.u.)
24,ATCGGGCCGAAACTCCATTCTTTCTTCCTTTTTGGCCCAACGGAGTCACCTAGTGCAG,10200 fluorescence intensity (a.u.)
25,AACTATATATGCCTTTTTCAGTAGTACTATACCGCTGCGACGGAGTCACCTAGTGCAG,8170 fluorescence intensity (a.u.)
26,TTCGATTTGTACCGACATGTTTCCGTCCATATTATTCTGTCGGAGTCACCTAGTGCAG,12800 fluorescence intensity (a.u.)
27,ATGCGTCCAAATATACTGTCCCGTGGTTTATTCATCCAAACGGAGTCACCTAGTGCAG,8040 fluorescence intensity (a.u.)
